Test results taken from the supplement of paper PMC10849652.
Some of the results follow.

Sequences of proteins named here, by UniProt entry; tags and fusion partners are left off. A change or cut given only in a name is not applied to a line headed by its entry.
UniProt P07602: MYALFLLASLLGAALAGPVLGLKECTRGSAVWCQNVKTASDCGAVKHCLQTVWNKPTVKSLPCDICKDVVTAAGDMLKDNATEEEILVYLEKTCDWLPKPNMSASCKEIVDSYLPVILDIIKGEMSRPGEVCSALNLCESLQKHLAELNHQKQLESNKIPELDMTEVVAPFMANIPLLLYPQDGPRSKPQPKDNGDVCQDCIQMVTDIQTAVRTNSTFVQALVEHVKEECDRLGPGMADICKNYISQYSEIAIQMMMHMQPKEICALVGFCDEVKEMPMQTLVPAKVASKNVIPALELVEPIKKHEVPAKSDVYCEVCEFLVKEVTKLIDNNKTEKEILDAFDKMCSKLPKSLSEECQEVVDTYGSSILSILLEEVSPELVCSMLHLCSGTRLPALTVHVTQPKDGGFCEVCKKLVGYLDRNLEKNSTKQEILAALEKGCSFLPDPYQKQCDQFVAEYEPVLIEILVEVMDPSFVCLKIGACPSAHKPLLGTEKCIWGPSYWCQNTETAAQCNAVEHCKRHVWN
UniProt Q05209: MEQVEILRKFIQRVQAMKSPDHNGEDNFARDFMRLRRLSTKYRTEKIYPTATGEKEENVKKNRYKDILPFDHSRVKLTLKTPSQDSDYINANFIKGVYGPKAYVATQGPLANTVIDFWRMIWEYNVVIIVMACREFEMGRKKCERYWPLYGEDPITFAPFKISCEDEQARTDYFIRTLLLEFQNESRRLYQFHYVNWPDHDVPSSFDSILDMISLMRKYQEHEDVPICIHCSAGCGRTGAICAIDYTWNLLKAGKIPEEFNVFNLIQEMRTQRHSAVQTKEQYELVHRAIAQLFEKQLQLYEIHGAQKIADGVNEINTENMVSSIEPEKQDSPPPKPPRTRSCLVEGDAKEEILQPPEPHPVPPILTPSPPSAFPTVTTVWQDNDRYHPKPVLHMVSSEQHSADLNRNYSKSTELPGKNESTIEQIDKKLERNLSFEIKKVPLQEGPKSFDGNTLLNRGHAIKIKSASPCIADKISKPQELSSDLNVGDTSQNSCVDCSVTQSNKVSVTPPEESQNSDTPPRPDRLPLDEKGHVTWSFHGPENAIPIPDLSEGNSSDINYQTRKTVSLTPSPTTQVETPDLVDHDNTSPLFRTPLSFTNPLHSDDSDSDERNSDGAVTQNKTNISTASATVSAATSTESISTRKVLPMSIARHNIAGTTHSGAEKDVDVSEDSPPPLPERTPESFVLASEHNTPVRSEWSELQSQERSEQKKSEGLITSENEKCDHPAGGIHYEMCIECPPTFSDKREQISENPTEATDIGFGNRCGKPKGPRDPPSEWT
UniProt Q93096: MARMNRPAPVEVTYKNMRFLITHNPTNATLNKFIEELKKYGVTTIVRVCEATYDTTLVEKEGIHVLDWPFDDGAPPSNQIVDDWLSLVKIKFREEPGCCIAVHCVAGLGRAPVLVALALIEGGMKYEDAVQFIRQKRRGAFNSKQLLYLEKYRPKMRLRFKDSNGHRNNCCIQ
UniProt Q14671: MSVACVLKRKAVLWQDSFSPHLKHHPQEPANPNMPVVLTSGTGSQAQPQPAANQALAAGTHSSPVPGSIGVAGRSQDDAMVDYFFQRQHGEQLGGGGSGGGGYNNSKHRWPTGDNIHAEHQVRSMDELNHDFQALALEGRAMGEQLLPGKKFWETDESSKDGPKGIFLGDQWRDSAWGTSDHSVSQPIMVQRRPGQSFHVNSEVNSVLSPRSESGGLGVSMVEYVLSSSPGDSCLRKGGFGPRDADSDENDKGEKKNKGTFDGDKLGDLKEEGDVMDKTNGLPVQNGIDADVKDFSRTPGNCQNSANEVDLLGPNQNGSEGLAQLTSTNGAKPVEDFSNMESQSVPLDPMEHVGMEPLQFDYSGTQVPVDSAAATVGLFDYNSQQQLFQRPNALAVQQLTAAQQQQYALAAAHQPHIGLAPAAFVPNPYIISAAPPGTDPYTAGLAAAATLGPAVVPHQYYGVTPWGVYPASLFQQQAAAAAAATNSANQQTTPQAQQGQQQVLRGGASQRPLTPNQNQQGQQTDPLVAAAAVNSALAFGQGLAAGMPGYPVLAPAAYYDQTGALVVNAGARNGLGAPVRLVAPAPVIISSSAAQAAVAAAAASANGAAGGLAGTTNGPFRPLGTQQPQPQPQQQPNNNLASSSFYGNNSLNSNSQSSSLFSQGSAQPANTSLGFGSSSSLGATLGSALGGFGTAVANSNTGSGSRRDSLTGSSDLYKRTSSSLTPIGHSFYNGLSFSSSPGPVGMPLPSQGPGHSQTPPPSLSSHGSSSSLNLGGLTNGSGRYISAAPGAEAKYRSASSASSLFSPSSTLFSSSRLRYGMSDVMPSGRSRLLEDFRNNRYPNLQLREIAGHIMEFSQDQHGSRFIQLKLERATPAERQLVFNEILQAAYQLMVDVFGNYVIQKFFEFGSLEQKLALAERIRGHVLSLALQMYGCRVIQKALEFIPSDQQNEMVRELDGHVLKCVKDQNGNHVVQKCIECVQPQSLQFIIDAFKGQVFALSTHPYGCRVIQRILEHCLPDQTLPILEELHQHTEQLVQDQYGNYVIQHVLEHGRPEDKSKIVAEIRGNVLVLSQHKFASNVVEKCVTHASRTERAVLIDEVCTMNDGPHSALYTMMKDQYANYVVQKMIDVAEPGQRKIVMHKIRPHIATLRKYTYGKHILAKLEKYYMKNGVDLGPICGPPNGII
UniProt Q9BT73: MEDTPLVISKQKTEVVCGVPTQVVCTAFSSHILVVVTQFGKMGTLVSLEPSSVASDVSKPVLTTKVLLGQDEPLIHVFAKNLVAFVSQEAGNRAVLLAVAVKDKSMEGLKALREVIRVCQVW
UniProt Q13308: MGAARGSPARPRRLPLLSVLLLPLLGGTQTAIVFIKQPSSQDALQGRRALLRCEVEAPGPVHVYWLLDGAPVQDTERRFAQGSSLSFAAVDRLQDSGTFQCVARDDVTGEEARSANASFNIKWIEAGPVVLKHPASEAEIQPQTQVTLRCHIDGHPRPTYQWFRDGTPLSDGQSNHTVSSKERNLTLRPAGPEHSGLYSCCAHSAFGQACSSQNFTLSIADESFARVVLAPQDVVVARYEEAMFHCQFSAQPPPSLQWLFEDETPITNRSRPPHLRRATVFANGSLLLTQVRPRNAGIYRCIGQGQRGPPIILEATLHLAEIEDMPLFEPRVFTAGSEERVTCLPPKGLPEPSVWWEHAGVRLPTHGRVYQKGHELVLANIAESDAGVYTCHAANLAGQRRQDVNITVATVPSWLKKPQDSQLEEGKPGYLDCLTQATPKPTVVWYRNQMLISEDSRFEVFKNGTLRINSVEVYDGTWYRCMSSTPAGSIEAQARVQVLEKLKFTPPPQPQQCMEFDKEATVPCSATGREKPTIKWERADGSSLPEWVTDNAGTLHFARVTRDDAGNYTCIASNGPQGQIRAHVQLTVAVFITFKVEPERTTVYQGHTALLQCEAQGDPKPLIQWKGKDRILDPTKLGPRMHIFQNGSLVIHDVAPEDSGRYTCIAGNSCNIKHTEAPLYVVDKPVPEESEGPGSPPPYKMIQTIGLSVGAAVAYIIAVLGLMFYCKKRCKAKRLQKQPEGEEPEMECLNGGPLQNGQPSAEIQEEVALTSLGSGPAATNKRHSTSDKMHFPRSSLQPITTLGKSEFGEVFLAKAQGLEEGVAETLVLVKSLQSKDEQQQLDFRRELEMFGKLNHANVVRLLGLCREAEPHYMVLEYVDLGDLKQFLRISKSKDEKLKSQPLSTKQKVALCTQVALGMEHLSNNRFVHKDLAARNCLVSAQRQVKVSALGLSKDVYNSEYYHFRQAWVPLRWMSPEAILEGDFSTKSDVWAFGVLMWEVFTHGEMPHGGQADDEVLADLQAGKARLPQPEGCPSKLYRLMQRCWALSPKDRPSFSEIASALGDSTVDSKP
UniProt P62195, whole entry, looked up: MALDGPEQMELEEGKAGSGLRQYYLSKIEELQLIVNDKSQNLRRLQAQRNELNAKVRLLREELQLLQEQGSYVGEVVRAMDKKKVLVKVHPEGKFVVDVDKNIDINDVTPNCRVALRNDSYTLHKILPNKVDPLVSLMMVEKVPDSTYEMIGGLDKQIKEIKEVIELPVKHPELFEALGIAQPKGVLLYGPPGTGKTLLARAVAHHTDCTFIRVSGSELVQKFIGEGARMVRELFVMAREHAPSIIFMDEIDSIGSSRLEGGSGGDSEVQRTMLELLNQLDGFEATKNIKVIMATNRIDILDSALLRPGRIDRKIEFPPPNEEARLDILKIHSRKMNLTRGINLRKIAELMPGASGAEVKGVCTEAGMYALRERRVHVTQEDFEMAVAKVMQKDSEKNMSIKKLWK
UniProt Q15008: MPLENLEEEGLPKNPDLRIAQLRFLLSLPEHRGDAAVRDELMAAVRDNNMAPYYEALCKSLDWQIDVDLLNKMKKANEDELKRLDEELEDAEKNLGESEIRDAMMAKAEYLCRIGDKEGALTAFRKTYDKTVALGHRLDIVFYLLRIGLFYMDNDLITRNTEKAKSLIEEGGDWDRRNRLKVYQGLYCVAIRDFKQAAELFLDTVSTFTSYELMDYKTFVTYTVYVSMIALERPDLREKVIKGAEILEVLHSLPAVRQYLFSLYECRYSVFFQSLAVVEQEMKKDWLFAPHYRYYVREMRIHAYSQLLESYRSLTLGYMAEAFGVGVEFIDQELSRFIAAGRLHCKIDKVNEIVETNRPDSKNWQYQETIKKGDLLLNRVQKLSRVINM
UniProt Q99460, whole entry, looked up: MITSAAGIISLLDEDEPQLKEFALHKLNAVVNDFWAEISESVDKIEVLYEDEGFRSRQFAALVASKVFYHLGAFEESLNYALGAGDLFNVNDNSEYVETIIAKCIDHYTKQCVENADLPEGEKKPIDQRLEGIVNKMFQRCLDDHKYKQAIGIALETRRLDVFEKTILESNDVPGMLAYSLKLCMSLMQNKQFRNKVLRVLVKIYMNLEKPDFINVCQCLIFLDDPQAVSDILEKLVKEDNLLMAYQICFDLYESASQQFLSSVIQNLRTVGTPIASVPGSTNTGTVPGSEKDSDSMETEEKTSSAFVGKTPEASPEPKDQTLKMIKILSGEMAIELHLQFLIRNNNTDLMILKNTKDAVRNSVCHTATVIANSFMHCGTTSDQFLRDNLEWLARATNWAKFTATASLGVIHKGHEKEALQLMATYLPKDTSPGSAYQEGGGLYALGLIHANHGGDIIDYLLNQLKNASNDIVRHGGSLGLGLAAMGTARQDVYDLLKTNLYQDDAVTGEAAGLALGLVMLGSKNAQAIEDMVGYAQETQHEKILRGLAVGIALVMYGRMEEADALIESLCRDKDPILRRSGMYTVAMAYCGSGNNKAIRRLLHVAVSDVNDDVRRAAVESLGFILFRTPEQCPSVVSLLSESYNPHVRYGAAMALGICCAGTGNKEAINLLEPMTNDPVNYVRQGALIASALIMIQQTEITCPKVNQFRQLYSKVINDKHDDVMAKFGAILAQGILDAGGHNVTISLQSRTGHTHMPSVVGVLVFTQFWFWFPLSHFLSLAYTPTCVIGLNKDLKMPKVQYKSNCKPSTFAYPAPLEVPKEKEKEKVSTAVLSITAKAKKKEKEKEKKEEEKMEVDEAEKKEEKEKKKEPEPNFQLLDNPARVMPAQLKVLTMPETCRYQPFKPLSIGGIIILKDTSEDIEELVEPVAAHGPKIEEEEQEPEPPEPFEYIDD
UniProt P25788: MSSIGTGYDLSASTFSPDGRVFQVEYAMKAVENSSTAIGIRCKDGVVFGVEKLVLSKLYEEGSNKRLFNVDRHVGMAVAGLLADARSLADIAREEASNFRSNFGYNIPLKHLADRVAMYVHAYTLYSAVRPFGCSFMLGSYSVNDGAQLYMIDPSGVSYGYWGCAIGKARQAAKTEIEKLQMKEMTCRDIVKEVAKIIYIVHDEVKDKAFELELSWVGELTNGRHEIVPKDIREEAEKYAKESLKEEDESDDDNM
UniProt Q9H939: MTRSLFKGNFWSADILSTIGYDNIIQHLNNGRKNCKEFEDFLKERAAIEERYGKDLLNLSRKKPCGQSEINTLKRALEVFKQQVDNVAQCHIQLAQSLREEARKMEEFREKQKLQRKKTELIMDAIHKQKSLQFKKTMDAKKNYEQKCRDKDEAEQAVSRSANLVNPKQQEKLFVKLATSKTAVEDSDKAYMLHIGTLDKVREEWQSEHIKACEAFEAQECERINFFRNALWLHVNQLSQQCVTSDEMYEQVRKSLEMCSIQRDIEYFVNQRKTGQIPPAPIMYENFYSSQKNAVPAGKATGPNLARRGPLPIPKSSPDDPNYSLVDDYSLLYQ
UniProt Q9Y617: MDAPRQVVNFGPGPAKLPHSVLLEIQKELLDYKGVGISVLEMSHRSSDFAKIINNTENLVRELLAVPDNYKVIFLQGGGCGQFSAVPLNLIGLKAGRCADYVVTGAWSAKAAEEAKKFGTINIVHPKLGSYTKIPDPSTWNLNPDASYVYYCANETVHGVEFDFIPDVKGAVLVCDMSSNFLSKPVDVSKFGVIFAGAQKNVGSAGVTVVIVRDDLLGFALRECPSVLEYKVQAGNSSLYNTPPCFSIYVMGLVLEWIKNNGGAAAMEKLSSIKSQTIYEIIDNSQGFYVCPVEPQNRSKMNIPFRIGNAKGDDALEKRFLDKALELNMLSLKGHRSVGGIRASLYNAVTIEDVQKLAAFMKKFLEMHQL

Legend:
Assay in all cases: log2 fold change, soluble protein after heating vs DMSO (PISA); higher = thermal stabilisation; K562 lysate, 10 uM; active = over 0.2 and 3.5 SD of the protein, either way, in both replicates (recomputed)
alvocidib = compound: CN1CC[C@H](c2c(O)cc(O)c3c(=O)cc(-c4ccccc4Cl)oc23)[C@H](O)C1 [alvocidib]
In short: (§1)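 Log-two fold change in thermal stability relative to solvent controls is reported from duplicates. For each sample, crude K562 extract from dounce-homogenised pellets in PBS pH 7.4 with 1 mM MgCl2, at 1 mg/mL protein, was treated with 10 μM compound for 30 min. Aliquots heated for 3 min across 48°C-58°C were pooled, brought to 0.5% NP-40 at 4°C and cleared at 21,000xg for 90 min. The supernatant was quantified by TMTpro 16plex LC-MS/MS with channel sums equalised.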

Tubastatin A = compound: CN1CCc2c(c3ccccc3n2Cc2ccc(C(=O)NO)cc2)C1 [Tubastatin A]
In short: as §1

[1] = compound: CNC(=O)C1=CC=CC=C1NC2=NC(=NC=C2Cl)NC3=C(C=C(C=C3)N4CCOCC4)OC
In short: as §1

defactinib = compound: CNC(=O)c1ccc(Nc2ncc(C(F)(F)F)c(NCc3nccnc3N(C)S(C)(=O)=O)n2)cc1 [defactinib]
In short: as §1

[2] = compound: CNc1nc(-c2ccc3c(N)n[nH]c3c2)cc(N2C[C@@H](C(=O)NC3CCCCC3)CC[C@H]2C)n1
In short: as §1

encorafenib = compound: COC(=O)N[C@@H](C)CNc1nccc(-c2cn(C(C)C)nc2-c2cc(Cl)cc(NS(C)(=O)=O)c2F)n1 [encorafenib]
In short: as §1

[3] = compound: COC(=O)[C@H](CCSC)NC(=O)C1=C(C=C(C=C1)NC[C@H](CS)N)C2=CC=CC=C2
In short: as §1

alisertib = compound: COc1cc(Nc2ncc3c(n2)-c2ccc(Cl)cc2C(c2c(F)cccc2OC)=NC3)ccc1C(=O)O [alisertib]
In short: as §1

[4] = compound: COc1cc2nc(-c3cc(F)ccc3O)nc(N[C@@H]3CNC[C@H]3C(C)(C)O)c2cc1OC
In short: as §1

gefitinib = compound: COc1cc2ncnc(Nc3ccc(F)c(Cl)c3)c2cc1OCCCN1CCOCC1 [gefitinib]
In short: as §1

lapatinib = compound: CS(=O)(=O)CCNCc1ccc(-c2ccc3ncnc(Nc4ccc(OCc5cccc(F)c5)c(Cl)c4)c3c2)o1 [lapatinib]
In short: as §1

pictilisib = compound: CS(=O)(=O)N1CCN(Cc2cc3nc(-c4cccc5[nH]ncc45)nc(N4CCOCC4)c3s2)CC1 [pictilisib]
In short: as §1

crizotinib = compound: C[C@@H](Oc1cc(-c2cnn(C3CCNCC3)c2)cnc1N)c1c(Cl)ccc(F)c1Cl [crizotinib]
In short: as §1

[5] = compound: C[C@H](C1=CC=C(C=C1)C(=O)NC2=C3C=CNC3=NC=C2)N
In short: as §1

duvelisib = compound: C[C@H](Nc1ncnc2nc[nH]c12)c1cc2cccc(Cl)c2c(=O)n1-c1ccccc1 [duvelisib]
In short: as §1

gandotinib = compound: Cc1cc(Nc2cc(CN3CCOCC3)c3nc(C)c(Cc4ccc(Cl)cc4F)n3n2)n[nH]1 [gandotinib]
In short: as §1

tozasertib = compound: Cc1cc(Nc2cc(N3CCN(C)CC3)nc(Sc3ccc(NC(=O)C4CC4)cc3)n2)n[nH]1 [tozasertib]
In short: as §1

doramapimod = compound: Cc1ccc(-n2nc(C(C)(C)C)cc2NC(=O)Nc2ccc(OCCN3CCOCC3)c3ccccc23)cc1 [doramapimod]
In short: as §1

bafetinib = compound: Cc1ccc(NC(=O)c2ccc(CN3CC[C@H](N(C)C)C3)c(C(F)(F)F)c2)cc1Nc1nccc(-c2cncnc2)n1 [bafetinib]
In short: as §1

[6] = compound: Cc1cccc(CC(=O)N2CCc3c2ccc(-c2cn(C)c4ncnc(N)c24)c3F)n1
In short: as §1

Measured: log2 fold change

PSMD4 (UniProt P55036)
inactive: alvocidib 0.005 | Tubastatin A 0.004 | [1] -0.013 | defactinib 0.008 | [2] 0.036 | encorafenib 0.007 | [3] -0.017 | alisertib -0.024 | [4] -0.005 | gefitinib -0.034 | lapatinib -0.005 | pictilisib -0.005 | crizotinib -0.001 | [5] 0.038 | duvelisib 0.008 | gandotinib 0.003 | tozasertib -0.019 | doramapimod 0.005 | bafetinib 0.022 | [6] -0.026

PUM3 (UniProt Q15397)
inactive: alvocidib -0.012 | Tubastatin A 0.009 | [1] -0.098 | defactinib -0.005 | [2] -0.017 | encorafenib 0.038 | [3] -0.03 | alisertib -0.004 | [4] -0.007 | gefitinib -0.031 | lapatinib -0.049 | pictilisib -0.03 | crizotinib 0.003 | [5] 0.03 | duvelisib 0.076 | gandotinib -0.126 | tozasertib 0.013 | doramapimod -0.012 | bafetinib -0.107 | [6] 0.05

PWP2 (UniProt Q15269)
inactive: alvocidib -0.014 | Tubastatin A -0.073 | [1] 0.027 | defactinib 0.042 | [2] 0.061 | encorafenib 0.035 | [3] -0.033 | alisertib 0.004 | [4] -0.007 | gefitinib -0.057 | lapatinib -0.017 | pictilisib -0.012 | crizotinib 0.001 | [5] -0.016 | duvelisib 0.005 | gandotinib -0.075 | tozasertib -0.013 | doramapimod -0.017 | bafetinib -0.023 | [6] 0.029

PSAP isoform 3 (UniProt P07602)
inactive: alvocidib 0.032 | Tubastatin A 0.028 | [1] 0.003 | defactinib 0.008 | [2] -0.034 | encorafenib -0.012 | [3] -0.069 | alisertib 0.027 | [4] 0.002 | gefitinib 0.027 | lapatinib 0.019 | pictilisib -0.004 | crizotinib 0.07 | [5] -0.004 | duvelisib 0.089 | gandotinib 0.01 | tozasertib 0.023 | doramapimod -0.031 | bafetinib 0.01 | [6] -0.023

PTPN12 (UniProt Q05209)
inactive: alvocidib -0.001 | Tubastatin A 0.005 | [1] 0.018 | defactinib 0.008 | [2] 0.009 | encorafenib 0.017 | [3] -0.038 | alisertib -0.02 | [4] -0.001 | gefitinib 0.009 | lapatinib 0.019 | pictilisib 0.023 | crizotinib 0.007 | [5] 0.023 | duvelisib 0.025 | gandotinib -0.048 | tozasertib 0.006 | doramapimod -0.009 | bafetinib -0.007 | [6] 0.001

PTP4A1 (UniProt Q93096)
inactive: alvocidib 0.05 | Tubastatin A 0.033 | [1] 0.023 | defactinib 0.033 | [2] 0.023 | encorafenib 0.006 | [3] -0.006 | alisertib -0.056 | [4] -0.015 | gefitinib 0.049 | lapatinib -0.002 | pictilisib 0.008 | crizotinib 0.09 | [5] 0.133 | duvelisib 0.023 | gandotinib -0.031 | tozasertib 0.001 | doramapimod -0.009 | bafetinib -0.042 | [6] -0.055

PUM1 isoform 3 (UniProt Q14671)
inactive: alvocidib 0.02 | Tubastatin A -0.033 | [1] -0.017 | defactinib 0.017 | [2] -0.023 | encorafenib 0.008 | [3] 0 | alisertib 0.031 | [4] 0.017 | gefitinib -0.014 | lapatinib 0.004 | pictilisib -0.036 | crizotinib 0.067 | [5] 0.021 | duvelisib -0.003 | gandotinib -0.151 | tozasertib 0.01 | bafetinib -0.067 | [6] -0.026
active: doramapimod -0.315

PSMG3 (UniProt Q9BT73)
inactive: alvocidib 0.047 | Tubastatin A 0.042 | [1] 0.013 | defactinib 0.025 | [2] 0.075 | encorafenib -0.025 | [3] -0.013 | alisertib 0.017 | [4] -0.009 | gefitinib -0.03 | lapatinib -0.01 | pictilisib 0.024 | crizotinib 0.007 | [5] 0.123 | duvelisib -0.003 | gandotinib -0.044 | tozasertib 0.001 | doramapimod 0.012 | bafetinib -0.029 | [6] -0.024

PSMC2 (UniProt P35998)
inactive: alvocidib 0.017 | Tubastatin A -0.006 | [1] -0.002 | defactinib 0.017 | [2] 0.04 | encorafenib -0.012 | [3] 0.064 | alisertib 0.02 | [4] 0.006 | gefitinib -0.01 | lapatinib -0.015 | pictilisib -0.015 | crizotinib -0.016 | [5] 0.015 | duvelisib 0 | gandotinib -0.084 | tozasertib 0.003 | doramapimod 0.017 | bafetinib 0.031 | [6] -0.033

PTK7 isoform 6 (UniProt Q13308)
inactive: alvocidib 0.013 | Tubastatin A 0.007 | [1] 0.012 | defactinib 0.055 | [2] 0.019 | encorafenib -0.031 | [3] -0.028 | alisertib 0.041 | [4] -0.071 | gefitinib -0.069 | lapatinib -0.088 | pictilisib 0.016 | crizotinib -0.019 | [5] -0.062 | duvelisib -0.03 | gandotinib 0.014 | tozasertib -0.022 | doramapimod -0.021 | bafetinib 0.023 | [6] 0.03

PSMC5 (UniProt P62195)
inactive: alvocidib 0.044 | Tubastatin A -0.001 | [1] 0.014 | defactinib -0.003 | [2] -0.002 | encorafenib 0.001 | [3] 0.032 | alisertib -0.005 | [4] -0.006 | gefitinib -0.016 | lapatinib -0.009 | pictilisib -0.01 | crizotinib -0.021 | [5] 0.076 | duvelisib 0.017 | gandotinib -0.125 | tozasertib 0.026 | doramapimod 0.008 | bafetinib 0.003 | [6] -0.086

PSMD6 isoform 4 (UniProt Q15008)
inactive: alvocidib 0.009 | Tubastatin A 0.021 | [1] -0.006 | defactinib -0.001 | [2] 0.004 | encorafenib 0 | [3] 0.022 | alisertib 0.014 | [4] 0.009 | gefitinib 0.011 | lapatinib -0.005 | pictilisib 0.062 | crizotinib -0.016 | [5] 0.015 | duvelisib 0.018 | gandotinib -0.093 | tozasertib -0.022 | doramapimod -0.003 | bafetinib 0.02 | [6] 0.009

PSMD1 (UniProt Q99460)
inactive: alvocidib 0.018 | Tubastatin A -0.027 | [1] -0.001 | defactinib 0.001 | [2] 0.005 | encorafenib -0.01 | [3] 0.043 | alisertib 0.007 | [4] -0.001 | gefitinib -0.005 | lapatinib 0.013 | pictilisib 0.015 | crizotinib -0.026 | [5] 0.02 | duvelisib 0.02 | gandotinib -0.057 | tozasertib -0.021 | doramapimod 0.028 | bafetinib -0.012 | [6] -0.011

PSMA3 (UniProt P25788)
inactive: alvocidib 0.026 | Tubastatin A 0.005 | [1] -0.007 | defactinib -0.003 | [2] 0.009 | encorafenib 0.006 | [3] -0.015 | alisertib 0 | [4] 0.001 | gefitinib -0.006 | lapatinib -0.01 | pictilisib -0.021 | crizotinib 0.063 | [5] 0.013 | duvelisib 0.005 | gandotinib 0.024 | tozasertib 0.002 | doramapimod -0.001 | bafetinib 0.038 | [6] -0.011

PSTPIP2 (UniProt Q9H939)
inactive: alvocidib -0.006 | Tubastatin A -0.04 | [1] 0.031 | defactinib -0.016 | [2] 0.026 | encorafenib 0.023 | [3] 0.002 | alisertib -0.052 | [4] -0.03 | gefitinib -0.028 | lapatinib 0.009 | pictilisib 0.019 | crizotinib -0.047 | [5] 0.062 | duvelisib -0.023 | gandotinib -0.095 | tozasertib 0.012 | doramapimod 0.002 | bafetinib -0.014 | [6] -0.027

PSAT1 (UniProt Q9Y617)
inactive: alvocidib -0.007 | Tubastatin A 0.015 | [1] -0.01 | defactinib 0.008 | [2] -0.011 | encorafenib -0.019 | [3] -0.03 | alisertib -0.028 | [4] -0.011 | gefitinib -0.041 | lapatinib 0.033 | pictilisib 0.015 | crizotinib 0.033 | [5] 0.027 | duvelisib -0.005 | gandotinib -0.006 | tozasertib 0.007 | doramapimod 0.014 | bafetinib 0.12 | [6] -0.013
